Measured values taken from US7060292B2, “Lipid structures and uses thereof” (GESynthesis, Inc., priority 2001, dated 2006).

Experiment: β-estradiol entry into and extraction from bilayer of NBD-C6-HPC vesicles
Assay type: physicochemical

| SMILES | change in fluorescence intensity on addition alone (without β-estradiol) | change in fluorescence on addition (1 μl of 40 mM in DMSO) | change in fluorescence on addition of β-CD after β-estradiol (5 μl of 10 mM β-CD in water, extraction from the vesicles) |
| --- | --- | --- | --- |
| OC[C@H]1O[C@@H]2O[C@H]3[C@H](O)[C@@H](O)[C@@H](O[C@H]4[C@H](O)[C@@H](O)[C@@H](O[C@H]5[C@H](O)[C@@H](O)[C@@H](O[C@H]6[C@H](O)[C@@H](O)[C@@H](O[C@H]7[C@H](O)[C@@H](O)[C@@H](O[C@H]8[C@H](O)[C@@H](O)[C@@H](O[C@H]1[C@H](O)[C@H]2O)O[C@@H]8CO)O[C@@H]7CO)O[C@@H]6CO)O[C@@H]5CO)O[C@@H]4CO)O[C@@H]3CO [β-CD, β-cyclodextrin] | did not alter the fluorescence intensity |  |  |
| C[C@]12CC[C@@H]3c4ccc(O)cc4CC[C@H]3[C@@H]1CC[C@@H]2O [β-estradiol] |  | Fluorescence decreased | increase in fluorescence |
